Only a part is listed here, and it is no random draw. For part of these data: At the low end of the ranking the order means little. This is one part of the list. For part of these data: The source does not settle which construct or isoform was used.

The target of one assay is T1, GABPA (UniProt Q06546).
T1 sequence: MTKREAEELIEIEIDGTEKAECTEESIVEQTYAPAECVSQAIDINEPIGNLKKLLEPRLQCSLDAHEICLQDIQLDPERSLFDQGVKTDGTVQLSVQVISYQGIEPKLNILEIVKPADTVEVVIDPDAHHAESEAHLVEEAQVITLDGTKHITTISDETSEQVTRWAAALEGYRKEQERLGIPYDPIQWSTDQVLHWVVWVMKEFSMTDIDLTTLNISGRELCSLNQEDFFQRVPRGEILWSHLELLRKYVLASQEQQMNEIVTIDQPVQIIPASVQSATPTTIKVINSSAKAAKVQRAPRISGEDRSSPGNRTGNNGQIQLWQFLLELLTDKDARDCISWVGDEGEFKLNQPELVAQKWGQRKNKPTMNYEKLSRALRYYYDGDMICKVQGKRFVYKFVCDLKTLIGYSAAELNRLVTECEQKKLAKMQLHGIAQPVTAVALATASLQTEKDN
Kind of assay: DAPPL (digital affinity profiling via proximity ligation, sequencing). Particulars: 10 mM Tris-HCl pH 7.5, 50 mM NaCl, 1 mM DTT, 4% glycerol, room temperature, 30 min; GST-TFs on glutathione beads, 16-mer random dsDNA library, 0.1% …; high values mean tight binding; double strand, one strand shown; scale: fold enrichment (6-mer frequency, TF over GST control).
On to GCAGGG, for which the binding signal worked out at 0.605.

With ATCGGG, the binding signal turned out to be 0.482.

On to CGAGGC, for which the binding signal was 0.682.

Consider ACGGTC, for which the binding signal was 0.792.

In turn, GCGAGC showed a binding signal of 0.945.

As for CCGTGA, the binding signal was determined as 0.185.

Sequence AGACGT yielded a binding signal of 0.484.

On to GAAGAC, for which the binding signal turned out to be 0.853.

Regarding TGGGAG, the binding signal was 0.461.

AGTCGT: the binding signal was 0.441.

In the case of GTGCAG, the binding signal came to 0.725.

Sequence GCTGTG had a binding signal of 0.627.

The sequence CGCAGC came in with a binding signal of 0.839.

The sequence CAGTGG returned a binding signal of 0.521.

Turning to GATTGA, the binding signal came to 0.968.

Take TGAGTA: the binding signal was 0.404.

GTGAGT: the binding signal turned out to be 0.136.

For the sequence TACAGT, the binding signal amounted to 0.909.

In turn, CCATGT had a binding signal of 0.845.

GGAGTA displayed a binding signal of 0.361.

Sequence ACGTGC yielded a binding signal of 0.692.

TCGTGT: the binding signal was found to be 0.778.

As for GAGAGT, the binding signal was 0.321.

With GCGGTT, the binding signal turned out to be 0.775.

In turn, GAGATA registered a binding signal of 0.709.

As for CCAGGT, the binding signal worked out at 0.763.

GTAGTA returned a binding signal of 0.896.

GGCACA returned a binding signal of 0.823.

Consider GGAGGC, for which the binding signal turned out to be 0.267.

As to CAGGGG, the binding signal was determined as 0.565.

The sequence GTCTGA displayed a binding signal of 0.728.

Consider CGGTCA, for which the binding signal came out at 0.752.

Regarding ACCAGA, the binding signal came to 0.887.

CAGTTG returned a binding signal of 0.499.

CAGCGG: the binding signal stood at 0.409.

In turn, TGCGGG gave a binding signal of 0.829.

On to CAATCG, for which the binding signal worked out at 0.922.

The sequence GTAGGT showed a binding signal of 0.792.

A further assay has as its target T2, ETS1 (UniProt P14921).
T2 sequence: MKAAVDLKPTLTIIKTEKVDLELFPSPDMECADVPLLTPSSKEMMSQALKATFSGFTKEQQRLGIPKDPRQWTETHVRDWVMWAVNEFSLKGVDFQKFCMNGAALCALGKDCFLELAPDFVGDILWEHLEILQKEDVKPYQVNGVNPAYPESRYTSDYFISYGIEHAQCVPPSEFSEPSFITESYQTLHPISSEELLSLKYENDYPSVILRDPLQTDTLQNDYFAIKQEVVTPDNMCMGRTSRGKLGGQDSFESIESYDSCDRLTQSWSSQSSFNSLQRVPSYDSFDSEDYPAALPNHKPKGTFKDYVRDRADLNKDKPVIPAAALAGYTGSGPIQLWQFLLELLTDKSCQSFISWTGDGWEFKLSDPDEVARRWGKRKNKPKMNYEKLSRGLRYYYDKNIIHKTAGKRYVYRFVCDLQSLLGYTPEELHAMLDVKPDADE
The assay is described as above. Particulars: 10 mM Tris-HCl pH 7.5, 50 mM NaCl, 1 mM DTT, 4% glycerol, room temperature, 30 min; GST-TFs on glutathione beads, 16-mer random dsDNA library, 0.1% …; high values mean tight binding; double strand, one strand shown; scale: fold enrichment (6-mer frequency, TF over GST control).
For the sequence GCAGGG, the binding signal was found to be 0.584.

ATCGGG yielded a binding signal of 0.479.

For the sequence CGAGGC, the binding signal worked out at 0.696.

In turn, ACGGTC displayed a binding signal of 0.742.

Consider GCGAGC, for which the binding signal was 0.81.

The sequence CCGTGA displayed a binding signal of 0.197.

On to AGACGT, for which the binding signal came to 0.446.

Consider GAAGAC, for which the binding signal stood at 0.832.

For the sequence TGGGAG, the binding signal is 0.403.

As to AGTCGT, the binding signal turned out to be 0.36.

Consider GTGCAG, for which the binding signal came to 0.757.

GCTGTG showed a binding signal of 0.663.

The sequence CGCAGC registered a binding signal of 0.834.

For CAGTGG, the binding signal stood at 0.506.

On to GATTGA, for which the binding signal stood at 0.975.

As to TGAGTA, the binding signal was found to be 0.441.

With GTGAGT, the binding signal was 0.122.

For the sequence TACAGT, the binding signal was 0.884.

CCATGT showed a binding signal of 0.873.

Sequence GGAGTA displayed a binding signal of 0.352.

The sequence ACGTGC returned a binding signal of 0.749.

For TCGTGT, the binding signal was found to be 0.782.

Regarding GAGAGT, the binding signal turned out to be 0.325.

As to GCGGTT, the binding signal was found to be 0.67.

Take GAGATA: the binding signal was 0.638.

Turning to CCAGGT, the binding signal was found to be 0.773.

In turn, GTAGTA gave a binding signal of 0.986.

The sequence GGCACA returned a binding signal of 0.811.

The sequence GGAGGC registered a binding signal of 0.258.

Regarding CAGGGG, the binding signal was 0.532.

The sequence GTCTGA showed a binding signal of 0.78.

Take CGGTCA: the binding signal came out at 0.832.

On to ACCAGA, for which the binding signal came to 0.914.

For the sequence CAGTTG, the binding signal was 0.449.

In turn, CAGCGG came in with a binding signal of 0.413.

TGCGGG: the binding signal is 0.783.

Turning to CAATCG, the binding signal came out at 0.881.

On to GTAGGT, for which the binding signal came out at 0.804.

For a further assay, the target named is T3, SPDEF (UniProt O95238).
T3 sequence: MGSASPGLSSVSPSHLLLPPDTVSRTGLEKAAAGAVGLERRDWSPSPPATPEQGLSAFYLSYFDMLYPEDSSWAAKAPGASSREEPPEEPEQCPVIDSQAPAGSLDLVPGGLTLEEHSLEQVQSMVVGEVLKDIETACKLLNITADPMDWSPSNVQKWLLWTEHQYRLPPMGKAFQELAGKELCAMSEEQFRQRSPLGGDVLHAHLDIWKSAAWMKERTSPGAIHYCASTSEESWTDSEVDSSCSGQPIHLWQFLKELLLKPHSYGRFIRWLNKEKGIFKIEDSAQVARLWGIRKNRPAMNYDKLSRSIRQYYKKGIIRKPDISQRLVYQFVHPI
Described as above. The following applies: 10 mM Tris-HCl pH 7.5, 50 mM NaCl, 1 mM DTT, 4% glycerol, room temperature, 30 min; GST-TFs on glutathione beads, 16-mer random dsDNA library, 0.1% …; high values mean tight binding; double strand, one strand shown; scale: fold enrichment (6-mer frequency, TF over GST control).
In turn, GCAGGG yielded a binding signal of 0.644.

Consider ATCGGG, for which the binding signal amounted to 0.457.

Sequence CGAGGC showed a binding signal of 0.657.

As to ACGGTC, the binding signal came out at 0.749.

For GCGAGC, the binding signal was determined as 0.849.

On to CCGTGA, for which the binding signal was 0.222.

Turning to AGACGT, the binding signal worked out at 0.431.

Consider GAAGAC, for which the binding signal worked out at 0.757.

Take TGGGAG: the binding signal stood at 0.396.

Take AGTCGT: the binding signal was determined as 0.368.

In the case of GTGCAG, the binding signal is 0.771.

With GCTGTG, the binding signal turned out to be 0.646.

CGCAGC yielded a binding signal of 0.797.

The sequence CAGTGG registered a binding signal of 0.39.

As to GATTGA, the binding signal was determined as 0.916.

TGAGTA returned a binding signal of 0.382.

As for GTGAGT, the binding signal is 0.134.

Sequence TACAGT registered a binding signal of 0.885.

The sequence CCATGT showed a binding signal of 0.789.

Regarding GGAGTA, the binding signal is 0.35.

The sequence ACGTGC showed a binding signal of 0.701.

Turning to TCGTGT, the binding signal was 0.855.

The sequence GAGAGT registered a binding signal of 0.345.

GCGGTT: the binding signal was 0.784.

GAGATA: the binding signal came out at 0.67.

In turn, CCAGGT showed a binding signal of 0.689.

For GTAGTA, the binding signal is 0.942.

For the sequence GGCACA, the binding signal was found to be 0.839.

For the sequence GGAGGC, the binding signal was 0.229.

Take CAGGGG: the binding signal amounted to 0.559.

In turn, GTCTGA gave a binding signal of 0.768.

CGGTCA showed a binding signal of 0.886.

For ACCAGA, the binding signal is 0.853.

In turn, CAGTTG displayed a binding signal of 0.488.

CAGCGG: the binding signal stood at 0.42.

With TGCGGG, the binding signal worked out at 0.754.

CAATCG yielded a binding signal of 0.772.

GTAGGT: the binding signal is 0.778.

These data come from article PMC7862700.
